Results on 19 compounds are retold here after the supplement of paper PMC12873370.

The structures appear in SMILES notation. Some of the results follow. Single values are uncertain, as repeats are few or missing.

Assay [1] relates to MEPP (mouse ovarian epithelium Trp53/Pten KO). Briefly: cell viability relative to untreated (fraction); higher = less growth inhibition. The following applies: 5 µM; 3 days.
Assay [2] relates to PREPP (mouse prostate epithelium Trp53/Pten KO). Described as above. Particulars: 5 µM; 3 days.

Consider `CC(C)=CCC[C@@H](C)[C@H]1CC[C@@]2(C)C3=C(CC[C@]12C)[C@@]1(C)CC[C@H](O)C(C)(C)[C@@H]1CC3`, for which the cell viability in assay [1] was determined as 0.865; in assay [2] it was 0.967.
`O=c1[nH]cnc2c1ncn2[C@@H]1O[C@H](CO)[C@@H](O)[C@H]1O`: the cell viability in assay [1] is 0.85; in assay [2] it was 1.01.
For `COc1cc2c(c(OC)c1OC)-c1c(cc(OC)c(OC)c1OC)CC(C)C(C)C2` (stereo not drawn), in that order: 1.51 and 0.911.
For the compound `O=C(O)C1=CO[C@@H](O[C@@H]2O[C@H](CO)[C@@H](O)[C@H](O)[C@H]2O)[C@@H]2C(CO)=CC[C@H]12`, the results for the cell viability in assay [1] and in assay [2] were 1.1 and 0.946, respectively.
In the case of `COC(=O)C1=CO[C@@H](O[C@@H]2O[C@H](CO)[C@@H](O)[C@H](O)[C@H]2O)[C@@H]2C(CO)=CC[C@H]12`, the figures for the cell viability in assay [1] and in assay [2] were 1.77 and 0.906, respectively.
Take `O=C(O)c1ccc[n+]([O-])c1`: the cell viability came to 0.886 in assay [1] and 0.964 in assay [2].
Take `Nc1ccc(S(N)(=O)=O)cc1`: the results for the cell viability in assay [1] and in assay [2] were 0.803 and 0.97, respectively.
For `CC(=O)O[C@H]1CC[C@@]2(C)C(=CC[C@@H]3[C@@H]2CC[C@]2(C)C(c4cccnc4)=CC[C@@H]32)C1`, in that order: 1.07 and 0.84.
For `O=c1cc(-c2ccc(O)cc2)oc2c([C@@H]3O[C@H](CO)[C@@H](O)[C@H](O)[C@H]3O)c(O)cc(O)c12`, in that order: 1.86 and 0.872.
For `COc1cc(/C=C/c2ccc(O)cc2)cc(OC)c1`, in that order: 0.988 and 0.835.
In the case of `CCC(C)(C)C(=O)O[C@H]1C[C@@H](C)C=C2C=C[C@H](C)[C@H](CC[C@@H]3C[C@@H](O)CC(=O)O3)[C@H]21`, the values for the cell viability in assay [1] and in assay [2] were 1 and 0.714, respectively.
As to `CNC(C)C1CCC(N)C(OC2C(N)CC(N)C(OC3OCC(C)(O)C(NC)C3O)C2O)O1` (stereo not drawn), the cell viability was 1.17 in assay [1] and 0.847 in assay [2].
For `NC(=O)c1ccc[n+]([O-])c1`, the values for the cell viability in assay [1] and in assay [2] were 0.883 and 1.07, respectively.
`O=C(O[C@@H]1O[C@@H]2COC(=O)c3cc(O)c(O)c(O)c3-c3c(cc(O)c(O)c3O)C(=O)O[C@H]([C@H]1O)[C@@H]2O)c1cc(O)c(O)c(O)c1`: the figures for the cell viability in assay [1] and in assay [2] were 1.12 and 1.09, respectively.
For `N[C@@H](C(=O)N[C@@H]1C(=O)N2C(C(=O)O)=C(Cl)CS[C@H]12)c1ccccc1`, in that order: 1.21 and 0.98.
For `O=C1c2cccc3c2[C@H](CCC3)CN1[C@@H]1CN2CCC1CC2`, in that order: 0.81 and 0.864.
In the case of `COc1cc(-c2oc3cc(O)cc(O)c3c(=O)c2O)ccc1O`, the cell viability in assay [1] was 2.23; in assay [2] it was 0.883.
Consider `COc1ccc(-c2cc(=O)c3c(O)cc(O[C@@H]4O[C@H](CO[C@@H]5O[C@@H](C)[C@H](O)[C@@H](O)[C@H]5O)[C@@H](O)[C@H](O)[C@H]4O)cc3o2)cc1O`, for which the cell viability in assay [1] stood at 0.875; in assay [2], 1.18.
`COc1ccc(-c2cc(=O)c3c(O)c(OC)c(O)cc3o2)cc1OC`: the cell viability in assay [1] was determined as 0.814; in assay [2] it was 0.865.
